Laboratory results taken from the supplement of paper PMC10849652.
Some of the results follow.

Amino acid sequences for entries named in this document (tags omitted). A change or cut given only in a name is not applied to a line headed by its entry.
UniProt Q14116, whole entry, looked up: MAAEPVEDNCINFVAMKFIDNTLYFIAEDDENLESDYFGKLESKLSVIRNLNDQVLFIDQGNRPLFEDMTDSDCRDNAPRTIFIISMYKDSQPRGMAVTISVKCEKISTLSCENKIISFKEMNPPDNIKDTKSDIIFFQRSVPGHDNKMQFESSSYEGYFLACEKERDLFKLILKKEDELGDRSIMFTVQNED
UniProt O43837: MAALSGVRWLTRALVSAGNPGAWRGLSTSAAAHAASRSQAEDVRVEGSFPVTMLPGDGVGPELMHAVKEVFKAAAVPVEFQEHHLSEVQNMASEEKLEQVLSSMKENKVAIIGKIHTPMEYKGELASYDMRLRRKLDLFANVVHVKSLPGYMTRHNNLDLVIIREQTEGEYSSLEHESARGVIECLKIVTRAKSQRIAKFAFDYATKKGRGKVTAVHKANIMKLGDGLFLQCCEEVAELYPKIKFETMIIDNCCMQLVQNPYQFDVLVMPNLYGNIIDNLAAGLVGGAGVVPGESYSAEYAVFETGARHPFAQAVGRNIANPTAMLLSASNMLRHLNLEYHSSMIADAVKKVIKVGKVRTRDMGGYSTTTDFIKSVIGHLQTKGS
UniProt Q96HW7, whole entry, looked up: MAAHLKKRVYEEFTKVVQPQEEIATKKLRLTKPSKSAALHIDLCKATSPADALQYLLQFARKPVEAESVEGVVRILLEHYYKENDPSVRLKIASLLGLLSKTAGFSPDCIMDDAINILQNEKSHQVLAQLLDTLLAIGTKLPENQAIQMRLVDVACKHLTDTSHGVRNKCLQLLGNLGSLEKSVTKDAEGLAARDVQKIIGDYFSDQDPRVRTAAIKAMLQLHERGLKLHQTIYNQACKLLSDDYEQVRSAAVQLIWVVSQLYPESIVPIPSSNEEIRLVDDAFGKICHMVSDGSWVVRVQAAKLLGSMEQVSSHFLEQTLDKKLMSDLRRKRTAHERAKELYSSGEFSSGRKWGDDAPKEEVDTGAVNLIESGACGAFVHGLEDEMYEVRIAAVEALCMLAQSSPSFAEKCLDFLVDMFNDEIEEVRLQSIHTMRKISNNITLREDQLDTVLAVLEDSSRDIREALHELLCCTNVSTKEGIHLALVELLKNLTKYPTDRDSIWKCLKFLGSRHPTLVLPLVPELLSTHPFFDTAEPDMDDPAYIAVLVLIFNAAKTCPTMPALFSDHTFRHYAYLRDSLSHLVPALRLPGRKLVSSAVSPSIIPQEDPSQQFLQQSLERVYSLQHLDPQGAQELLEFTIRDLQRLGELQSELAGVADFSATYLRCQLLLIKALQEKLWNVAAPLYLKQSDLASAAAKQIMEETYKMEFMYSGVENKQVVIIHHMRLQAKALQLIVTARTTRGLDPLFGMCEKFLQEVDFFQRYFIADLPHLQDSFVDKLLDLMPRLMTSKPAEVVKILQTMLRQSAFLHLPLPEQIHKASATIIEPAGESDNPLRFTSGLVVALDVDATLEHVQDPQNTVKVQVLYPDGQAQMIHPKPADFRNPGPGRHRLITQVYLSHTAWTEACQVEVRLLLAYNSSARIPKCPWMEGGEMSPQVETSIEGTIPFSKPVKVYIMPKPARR
UniProt O43736: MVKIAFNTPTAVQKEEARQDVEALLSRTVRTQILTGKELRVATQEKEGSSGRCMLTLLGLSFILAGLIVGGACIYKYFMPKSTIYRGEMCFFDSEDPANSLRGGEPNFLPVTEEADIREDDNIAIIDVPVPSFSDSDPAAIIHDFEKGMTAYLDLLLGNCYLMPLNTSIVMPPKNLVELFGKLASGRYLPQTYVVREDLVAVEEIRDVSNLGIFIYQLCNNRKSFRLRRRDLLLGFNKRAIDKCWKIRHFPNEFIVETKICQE
UniProt P29218: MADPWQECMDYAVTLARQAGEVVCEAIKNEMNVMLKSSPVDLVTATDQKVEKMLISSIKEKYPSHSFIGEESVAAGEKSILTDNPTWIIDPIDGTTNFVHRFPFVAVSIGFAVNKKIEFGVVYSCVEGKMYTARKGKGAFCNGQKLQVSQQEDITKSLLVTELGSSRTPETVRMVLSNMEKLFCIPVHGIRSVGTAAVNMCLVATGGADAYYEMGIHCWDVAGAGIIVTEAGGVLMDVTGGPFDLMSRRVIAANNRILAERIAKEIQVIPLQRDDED
UniProt P05161, whole entry, looked up: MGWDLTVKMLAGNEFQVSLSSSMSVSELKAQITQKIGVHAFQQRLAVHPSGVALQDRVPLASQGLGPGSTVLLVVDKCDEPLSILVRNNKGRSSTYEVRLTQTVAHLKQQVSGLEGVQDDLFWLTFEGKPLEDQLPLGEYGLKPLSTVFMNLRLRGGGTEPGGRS
UniProt Q13572: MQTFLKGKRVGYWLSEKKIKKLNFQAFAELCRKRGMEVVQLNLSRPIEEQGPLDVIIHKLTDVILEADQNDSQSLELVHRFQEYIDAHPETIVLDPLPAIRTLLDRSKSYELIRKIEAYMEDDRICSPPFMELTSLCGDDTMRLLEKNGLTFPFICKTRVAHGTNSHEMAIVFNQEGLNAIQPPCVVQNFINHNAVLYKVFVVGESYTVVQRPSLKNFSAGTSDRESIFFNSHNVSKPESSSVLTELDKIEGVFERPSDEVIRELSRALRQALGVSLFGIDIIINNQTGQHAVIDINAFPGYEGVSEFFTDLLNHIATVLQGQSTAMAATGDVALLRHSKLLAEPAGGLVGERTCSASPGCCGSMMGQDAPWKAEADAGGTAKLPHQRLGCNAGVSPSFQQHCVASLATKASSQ
UniProt Q9BUE6: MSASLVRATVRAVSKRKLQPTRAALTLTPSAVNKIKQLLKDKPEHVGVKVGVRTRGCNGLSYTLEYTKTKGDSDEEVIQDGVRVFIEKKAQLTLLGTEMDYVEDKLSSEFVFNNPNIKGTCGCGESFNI
UniProt Q9ULR0: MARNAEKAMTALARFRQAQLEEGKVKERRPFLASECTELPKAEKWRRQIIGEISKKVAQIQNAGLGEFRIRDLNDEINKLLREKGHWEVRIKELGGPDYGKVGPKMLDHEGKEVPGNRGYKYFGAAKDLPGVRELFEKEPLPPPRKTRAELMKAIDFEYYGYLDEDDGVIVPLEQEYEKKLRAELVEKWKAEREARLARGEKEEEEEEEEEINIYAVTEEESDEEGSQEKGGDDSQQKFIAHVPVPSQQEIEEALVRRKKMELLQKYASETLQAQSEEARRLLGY
UniProt Q9Y6K9, whole entry, looked up: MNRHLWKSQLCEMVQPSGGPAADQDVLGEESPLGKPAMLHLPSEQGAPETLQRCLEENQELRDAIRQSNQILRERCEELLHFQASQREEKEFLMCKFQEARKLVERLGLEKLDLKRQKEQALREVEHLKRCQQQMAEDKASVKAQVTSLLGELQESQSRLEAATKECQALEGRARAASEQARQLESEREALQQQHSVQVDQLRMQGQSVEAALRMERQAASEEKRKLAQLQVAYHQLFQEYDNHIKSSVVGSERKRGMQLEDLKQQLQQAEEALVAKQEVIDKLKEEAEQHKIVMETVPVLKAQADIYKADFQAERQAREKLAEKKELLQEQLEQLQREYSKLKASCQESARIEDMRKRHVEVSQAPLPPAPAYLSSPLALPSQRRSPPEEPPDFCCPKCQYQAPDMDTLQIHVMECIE
UniProt P53990, whole entry, looked up: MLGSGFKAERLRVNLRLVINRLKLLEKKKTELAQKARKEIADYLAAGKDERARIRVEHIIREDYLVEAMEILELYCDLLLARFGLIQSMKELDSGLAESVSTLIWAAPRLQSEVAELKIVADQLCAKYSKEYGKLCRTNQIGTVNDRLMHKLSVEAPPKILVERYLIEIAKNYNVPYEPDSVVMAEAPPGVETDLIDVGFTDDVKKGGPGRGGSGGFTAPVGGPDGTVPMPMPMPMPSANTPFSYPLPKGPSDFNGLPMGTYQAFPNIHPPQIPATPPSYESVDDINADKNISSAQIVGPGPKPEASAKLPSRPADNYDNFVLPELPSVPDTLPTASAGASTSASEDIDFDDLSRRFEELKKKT
UniProt O00425, whole entry, looked up: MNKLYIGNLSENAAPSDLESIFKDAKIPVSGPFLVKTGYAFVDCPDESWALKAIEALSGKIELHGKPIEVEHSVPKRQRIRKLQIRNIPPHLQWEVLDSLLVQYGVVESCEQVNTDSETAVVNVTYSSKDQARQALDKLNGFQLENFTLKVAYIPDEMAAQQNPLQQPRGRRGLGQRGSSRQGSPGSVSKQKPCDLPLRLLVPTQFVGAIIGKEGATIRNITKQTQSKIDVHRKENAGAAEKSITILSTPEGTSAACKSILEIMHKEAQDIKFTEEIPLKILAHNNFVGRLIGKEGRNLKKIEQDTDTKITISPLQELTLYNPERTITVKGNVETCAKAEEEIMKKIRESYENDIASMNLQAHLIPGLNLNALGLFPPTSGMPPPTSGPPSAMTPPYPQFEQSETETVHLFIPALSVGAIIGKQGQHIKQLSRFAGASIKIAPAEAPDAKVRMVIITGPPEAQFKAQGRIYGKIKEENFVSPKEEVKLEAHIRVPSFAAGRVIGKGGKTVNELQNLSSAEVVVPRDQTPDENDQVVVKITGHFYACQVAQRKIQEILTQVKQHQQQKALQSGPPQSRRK
UniProt Q9NX62: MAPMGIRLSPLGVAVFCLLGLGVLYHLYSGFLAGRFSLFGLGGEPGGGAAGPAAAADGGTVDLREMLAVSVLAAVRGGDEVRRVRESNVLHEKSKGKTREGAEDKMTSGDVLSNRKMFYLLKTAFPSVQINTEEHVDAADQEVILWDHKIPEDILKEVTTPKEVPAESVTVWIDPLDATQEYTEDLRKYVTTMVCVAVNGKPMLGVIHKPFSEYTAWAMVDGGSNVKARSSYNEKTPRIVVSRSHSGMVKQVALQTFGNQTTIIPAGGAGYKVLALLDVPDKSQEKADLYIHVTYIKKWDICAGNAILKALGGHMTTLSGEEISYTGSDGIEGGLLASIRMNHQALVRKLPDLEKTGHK
UniProt P51553: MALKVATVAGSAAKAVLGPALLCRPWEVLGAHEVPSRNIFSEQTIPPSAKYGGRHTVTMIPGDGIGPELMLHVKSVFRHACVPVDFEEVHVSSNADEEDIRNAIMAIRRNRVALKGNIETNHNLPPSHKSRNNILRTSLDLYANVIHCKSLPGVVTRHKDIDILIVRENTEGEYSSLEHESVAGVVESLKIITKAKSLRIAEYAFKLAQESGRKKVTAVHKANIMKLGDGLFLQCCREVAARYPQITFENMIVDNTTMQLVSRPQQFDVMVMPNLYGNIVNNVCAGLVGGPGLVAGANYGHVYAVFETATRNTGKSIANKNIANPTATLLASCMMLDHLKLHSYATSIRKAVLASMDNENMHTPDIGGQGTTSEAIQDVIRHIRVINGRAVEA
UniProt Q8TEX9: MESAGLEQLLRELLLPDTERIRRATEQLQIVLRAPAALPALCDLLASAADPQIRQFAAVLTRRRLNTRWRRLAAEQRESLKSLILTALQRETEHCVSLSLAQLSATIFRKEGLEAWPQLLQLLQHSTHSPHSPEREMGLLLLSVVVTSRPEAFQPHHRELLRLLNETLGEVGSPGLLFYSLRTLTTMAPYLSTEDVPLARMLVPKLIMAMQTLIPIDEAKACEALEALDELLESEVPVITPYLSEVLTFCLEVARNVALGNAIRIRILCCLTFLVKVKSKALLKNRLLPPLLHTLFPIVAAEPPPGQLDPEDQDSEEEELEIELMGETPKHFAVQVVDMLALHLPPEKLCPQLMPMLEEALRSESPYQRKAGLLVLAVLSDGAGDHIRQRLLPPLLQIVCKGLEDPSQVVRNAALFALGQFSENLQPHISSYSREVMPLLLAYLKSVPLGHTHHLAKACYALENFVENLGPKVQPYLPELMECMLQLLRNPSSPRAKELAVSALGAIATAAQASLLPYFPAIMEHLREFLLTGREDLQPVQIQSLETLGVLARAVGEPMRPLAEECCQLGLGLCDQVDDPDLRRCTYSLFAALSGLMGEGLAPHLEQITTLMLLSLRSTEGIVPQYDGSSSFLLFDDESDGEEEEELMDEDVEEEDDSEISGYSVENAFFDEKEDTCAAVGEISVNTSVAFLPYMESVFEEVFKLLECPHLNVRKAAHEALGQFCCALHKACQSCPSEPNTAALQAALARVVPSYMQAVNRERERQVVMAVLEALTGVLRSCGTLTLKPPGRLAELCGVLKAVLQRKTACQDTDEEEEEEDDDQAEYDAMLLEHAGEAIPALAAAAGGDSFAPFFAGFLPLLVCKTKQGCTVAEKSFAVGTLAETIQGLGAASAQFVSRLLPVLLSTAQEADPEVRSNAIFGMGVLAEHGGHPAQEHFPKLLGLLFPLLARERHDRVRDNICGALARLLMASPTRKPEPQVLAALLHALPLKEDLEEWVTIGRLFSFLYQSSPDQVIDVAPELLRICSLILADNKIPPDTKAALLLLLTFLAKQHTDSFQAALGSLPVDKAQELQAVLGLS

Experiments:
Test in all cases: log2 fold change, soluble protein after heating vs DMSO (PISA); higher = thermal stabilisation; K562 cells, 10 uM, 30 min; active = over 0.2 and 3.5 SD of the protein, either way, in both replicates (recomputed)
[1] = compound: CC[C@@H]1C(=O)N(C)c2cnc(Nc3ccc(C(=O)NC4CCN(C)CC4)cc3OC)nc2N1C1CCCC1
How it was run: (§1)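 Values are thermal stability changes relative to control samples and are taken from duplicates. They are stated as log2 fold changes. Before quantification by TMTpro 16plex LC-MS/MS with equalised channel sums, K562 cells at 2×10^6 cells/mL were treated with 10 μM compound for 30 min, heated in aliquots for 3 min across 48°C-58°C, pooled, extracted in PBS with 0.5% NP-40 at 4°C, and centrifuged at 21,000xg for 90 min to give the soluble supernatant.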

[2] = compound: CC[C@@H]1C(=O)N(C)c2cnc(Nc3ccc(C(=O)N[C@H]4CC[C@H](N5CCN(CC6CC6)CC5)CC4)cc3OC)nc2N1C(C)C [volasertib]
How it was run: as §1

[3] = compound: CC[C@H](C)N1C=C(C2=C(C=C(C=C21)C3=CN=C(C=C3)N4CCNCC4)C(=O)NCC5=C(C=C(NC5=O)C)C)C
How it was run: as §1

[4] = compound: CC[C@H](C)[C@@H](C(=O)N[C@@H]([C@@H](C)O)C(=O)N[C@@H](CC(C)C)C(=O)[C@]1(CO1)C)NC(=O)[C@H]([C@@H](C)CC)N(C)C(=O)C [epoxomicin]
How it was run: as §1

[5] = compound: CCn1c(C(=O)N(C2CC2)C2CC2)cc2c3c(ncn3C)c(Nc3cc(C)n(C)n3)nc21
How it was run: as §1

[6] = compound: CCn1cc(-c2ccnc3[nH]c(-c4cccc(CN(C)C)c4)cc23)c(-c2ccc(NC(=O)N(C)C)cc2)n1
How it was run: as §1

[7] = compound: CN(C)CC(=O)Nc1ccc2[nH]c(=O)c3ccccc3c2c1
How it was run: as §1

[8] = compound: CN(CCOC1=CC=C(C=C1)C[C@H]2C(=O)NC(=O)S2)C3=CC=CC=N3 (racemic) [rosiglitazone]
How it was run: as §1

[9] = compound: CN1C2=C(C3=C1C(=O)N(N=C3)CC4=CC(=CC=C4)N)SC(=C2)S(=O)C
How it was run: as §1

[10] = compound: CN1CCC(CNc2ccc3ncc(-c4cccc(OC(F)(F)F)c4)n3n2)CC1
How it was run: as §1

[11] = compound: CN1CCN(CCOc2cc(OC3CCOCC3)c3c(Nc4c(Cl)ccc5c4OCO5)ncnc3c2)CC1 [saracatinib]
How it was run: as §1

[12] = compound: CN1CCN(c2nc(C3=C(c4c[nH]c5ccccc45)C(=O)NC3=O)c3ccccc3n2)CC1 [sotrastaurin]
How it was run: as §1

[13] = compound: CN1CC[C@H](c2c(O)cc(O)c3c(=O)cc(-c4ccccc4Cl)oc23)[C@H](O)C1 [alvocidib]
How it was run: as §1

[14] = compound: CN1CCc2c(c3ccccc3n2Cc2ccc(C(=O)NO)cc2)C1 [Tubastatin A]
How it was run: as §1

[15] = compound: CNC(=O)C1=CC=CC=C1NC2=NC(=NC=C2Cl)NC3=C(C=C(C=C3)N4CCOCC4)OC
How it was run: as §1

[16] = compound: CNC(=O)c1ccc(Nc2ncc(C(F)(F)F)c(NCc3nccnc3N(C)S(C)(=O)=O)n2)cc1 [defactinib]
How it was run: as §1

[17] = compound: CNCc1ccc(-c2[nH]c3cc(F)cc4c3c2CCNC4=O)cc1 [rucaparib]
How it was run: as §1

[18] = compound: CNc1nc(-c2ccc3c(N)n[nH]c3c2)cc(N2C[C@@H](C(=O)NC3CCCCC3)CC[C@H]2C)n1
How it was run: as §1

[19] = compound: COC(=O)N[C@@H](C)CNc1nccc(-c2cn(C(C)C)nc2-c2cc(Cl)cc(NS(C)(=O)=O)c2F)n1 [encorafenib]
How it was run: as §1

[20] = compound: COC(=O)[C@H](CCSC)NC(=O)C1=C(C=C(C=C1)NC[C@H](CS)N)C2=CC=CC=C2
How it was run: as §1

Measured: log2 fold change

IL18 (UniProt Q14116)
inactive: [1] 0.071 | [2] 0.059 | [3] -0.004 | [4] -0.007 | [5] -0.006 | [6] -0.11 | [7] -0.013 | [8] -0.037 | [9] -0.089 | [10] 0.011 | [11] -0.011 | [12] 0.026 | [13] 0.01 | [14] -0.019 | [15] -0.02 | [16] -0.059 | [17] -0.048 | [18] -0.064 | [19] -0.006 | [20] 0.006

IDH3B (UniProt O43837)
inactive: [1] 0.002 | [2] 0.008 | [3] 0.005 | [4] 0.054 | [5] -0.019 | [6] -0.071 | [7] 0.001 | [8] 0.044 | [9] -0.063 | [10] -0.025 | [11] 0.035 | [12] 0.011 | [13] -0.038 | [14] 0.036 | [15] -0.004 | [16] -0.065 | [17] -0.054 | [18] 0.013 | [19] -0.029 | [20] -0.028

INTS4 (UniProt Q96HW7)
inactive: [1] 0.009 | [2] -0.102 | [3] -0.009 | [4] 0.041 | [5] -0.036 | [6] 0.015 | [7] -0.04 | [8] 0.029 | [9] -0.03 | [10] 0.035 | [11] 0.032 | [12] 0.005 | [13] -0.094 | [14] -0.013 | [15] -0.015 | [16] -0.042 | [17] -0.018 | [18] -0.064 | [19] 0.004 | [20] -0.01

INPP4A (UniProt Q96PE3)
inactive: [1] 0.012 | [2] -0.033 | [3] 0.032 | [4] 0.011 | [5] -0.011 | [6] 0.12 | [7] 0.056 | [8] 0.035 | [9] 0.015 | [10] -0.209 | [11] 0.02 | [12] -0.002 | [13] -0.083 | [14] -0.004 | [15] 0.02 | [16] -0.16 | [17] -0.042 | [18] -0.086 | [19] 0.011 | [20] 0.001

ITM2A (UniProt O43736)
inactive: [1] -0.028 | [2] -0.081 | [3] -0.019 | [4] -0.045 | [5] -0.021 | [6] -0.01 | [7] -0.055 | [8] -0.015 | [9] -0.024 | [10] 0.02 | [11] -0.014 | [12] 0.095 | [13] 0.086 | [14] 0.097 | [15] 0.036 | [16] 0.008 | [17] 0.089 | [18] 0.093 | [19] 0.169 | [20] -0.02

IMPA1 isoform 3 (UniProt P29218)
inactive: [1] 0.051 | [2] 0.064 | [3] -0.027 | [4] -0.009 | [5] 0.024 | [6] -0.02 | [7] -0.043 | [8] 0.004 | [9] -0.003 | [10] -0.026 | [11] 0.082 | [12] 0.004 | [13] 0.014 | [14] -0.019 | [15] 0.01 | [16] 0.005 | [17] -0.05 | [18] -0.05 | [19] -0.013 | [20] 0.002

ISG15 (UniProt P05161)
inactive: [1] 0.002 | [2] -0.198 | [3] 0.088 | [4] -0.049 | [5] -0.045 | [6] -0.075 | [7] 0.062 | [8] 0.083 | [9] -0.102 | [10] -0.053 | [11] -0.085 | [12] -0.085 | [13] -0.217 | [14] 0.088 | [15] 0.088 | [16] -0.177 | [17] -0.003 | [18] 0.01 | [19] 0.085 | [20] -0.041

ITPK1 (UniProt Q13572)
inactive: [1] 0.031 | [2] 0.053 | [3] 0.012 | [4] 0.011 | [5] -0.043 | [6] -0.158 | [7] 0.039 | [8] 0.067 | [9] -0.114 | [10] 0.029 | [11] -0.014 | [12] 0.067 | [13] -0.051 | [14] 0.058 | [15] -0.067 | [16] -0.025 | [17] -0.074 | [18] 0.048 | [19] -0.026 | [20] -0.064

ISCA1 isoform 2 (UniProt Q9BUE6)
inactive: [1] -0.007 | [2] -0.037 | [3] 0.127 | [4] -0.072 | [5] -0.027 | [6] -0.047 | [7] 0.045 | [8] 0.006 | [9] -0.089 | [10] 0 | [11] 0.031 | [12] 0.01 | [13] -0.053 | [14] -0.154 | [15] 0.021 | [16] 0.01 | [17] 0.026 | [18] -0.051 | [19] -0.118 | [20] 0.069

ISY1 isoform 1 (UniProt Q9ULR0)
inactive: [1] 0.104 | [2] 0.076 | [3] -0.066 | [4] -0.001 | [5] 0.038 | [6] 0.005 | [7] -0.039 | [8] -0.042 | [9] -0.003 | [10] -0.061 | [11] 0.019 | [12] 0.037 | [13] 0.14 | [14] -0.003 | [15] 0.013 | [16] 0.113 | [17] 0.101 | [18] -0.066 | [19] -0.033 | [20] 0.027

IKBKG isoform 2 (UniProt Q9Y6K9)
inactive: [1] 0.039 | [2] 0.059 | [3] -0.062 | [4] 0.015 | [5] -0.012 | [6] 0 | [7] -0.053 | [8] 0.015 | [9] 0.016 | [10] 0.068 | [11] 0.02 | [12] 0.002 | [13] 0.077 | [14] 0.031 | [15] -0.024 | [16] 0.051 | [17] -0.011 | [18] -0.043 | [19] -0.01 | [20] 0.008

IST1 isoform 5 (UniProt P53990)
inactive: [1] 0.06 | [2] -0.003 | [3] 0.007 | [4] 0.055 | [5] -0.007 | [6] -0.013 | [7] 0.045 | [8] 0.068 | [9] 0.013 | [10] 0.029 | [11] -0.028 | [12] -0.071 | [13] -0.094 | [14] -0.002 | [15] -0.01 | [16] -0.026 | [17] -0.029 | [18] 0 | [19] 0.04 | [20] -0.039

IGF2BP3 (UniProt O00425)
inactive: [1] 0.102 | [2] -0.092 | [3] 0.118 | [4] -0.324 | [5] 0.027 | [6] 0.141 | [7] -0.033 | [8] -0.083 | [9] 0.425 | [10] -0.036 | [11] -0.123 | [12] -0.185 | [13] 0.158 | [14] 0.156 | [15] -0.031 | [16] 0.116 | [17] 0.621 | [18] 0.118 | [19] 0.302 | [20] -0.034

IMPAD1 (UniProt Q9NX62)
inactive: [1] 0.029 | [2] -0.039 | [3] -0.025 | [4] -0.032 | [5] 0.025 | [6] 0.016 | [7] 0.213 | [8] 0.022 | [9] -0.029 | [10] 0.04 | [11] 0.001 | [12] 0.029 | [13] 0.003 | [14] 0.01 | [15] -0.016 | [16] -0.052 | [17] -0.059 | [18] -0.012 | [19] 0.004 | [20] -0.025

IDH3G (UniProt P51553)
inactive: [1] -0.008 | [2] 0.029 | [3] 0.004 | [4] 0.02 | [5] -0.006 | [6] -0.079 | [7] -0.017 | [8] -0.027 | [9] -0.059 | [10] 0.013 | [11] -0.008 | [12] 0.008 | [13] 0.01 | [14] -0.024 | [15] 0.003 | [16] -0.017 | [17] -0.005 | [18] 0.024 | [19] -0.012 | [20] -0.021

IPO4 isoform 2 (UniProt Q8TEX9)
inactive: [1] -0.098 | [2] -0.401 | [3] 0.032 | [4] 0.055 | [5] -0.007 | [6] 0.039 | [7] 0.12 | [8] 0.025 | [9] 0.148 | [10] -0.152 | [11] -0.029 | [12] -0.203 | [13] 0.002 | [14] -0.032 | [15] 0.004 | [16] -0.033 | [17] 0.201 | [18] 0.005 | [19] 0.138 | [20] -0.054

Fetched one by one from above, 2 records:
ITM2A (UniProt O43736)
inactive: [1] -0.028 | [2] -0.081 | [3] -0.019 | [4] -0.045 | [5] -0.021 | [6] -0.01 | [7] -0.055 | [8] -0.015 | [9] -0.024 | [10] 0.02 | [11] -0.014 | [12] 0.095 | [13] 0.086 | [14] 0.097 | [15] 0.036 | [16] 0.008 | [17] 0.089 | [18] 0.093 | [19] 0.169 | [20] -0.02

IPO4 isoform 2 (UniProt Q8TEX9)
inactive: [1] -0.098 | [2] -0.401 | [3] 0.032 | [4] 0.055 | [5] -0.007 | [6] 0.039 | [7] 0.12 | [8] 0.025 | [9] 0.148 | [10] -0.152 | [11] -0.029 | [12] -0.203 | [13] 0.002 | [14] -0.032 | [15] 0.004 | [16] -0.033 | [17] 0.201 | [18] 0.005 | [19] 0.138 | [20] -0.054
